Paper doi:10.1101/2022.01.12.476115
No constants are given. Whether binding was seen depends on the method and setting. Binding seen in cells or lysates may run through a third protein. Some binding calls cover weakened binding; strength is not graded here.

By UniProt entry, the sequences of proteins in these tests, tags left out. Where a name states a change or a piece, a line headed by the entry shows the natural chain unless it says otherwise.
UniProt P46527: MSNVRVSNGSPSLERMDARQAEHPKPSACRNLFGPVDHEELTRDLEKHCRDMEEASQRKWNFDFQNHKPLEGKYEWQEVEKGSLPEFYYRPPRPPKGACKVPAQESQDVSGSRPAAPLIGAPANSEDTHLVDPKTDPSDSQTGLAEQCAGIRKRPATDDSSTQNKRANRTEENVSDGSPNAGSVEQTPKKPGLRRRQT
UniProt P06493: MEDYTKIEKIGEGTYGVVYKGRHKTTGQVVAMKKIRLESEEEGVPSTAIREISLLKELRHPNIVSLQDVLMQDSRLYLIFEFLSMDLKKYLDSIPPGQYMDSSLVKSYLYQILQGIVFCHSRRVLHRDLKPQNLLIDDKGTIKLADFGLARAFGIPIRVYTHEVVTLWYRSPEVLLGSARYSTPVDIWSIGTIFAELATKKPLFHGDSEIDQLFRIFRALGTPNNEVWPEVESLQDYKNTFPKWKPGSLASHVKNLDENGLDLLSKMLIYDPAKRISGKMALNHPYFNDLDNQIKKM

Target: Flag-p27 FL (full-length p27 CDK inhibitor) (human) (UniProt P46527)
Experiment: co-IP

**Q.** “Cdk1-cyclin B complex (M-phase cyclin) (from UniProt P06493 1-297; P14635 1-433)” was tested. Which binding did it give?
**A.** Its binding is “binds”.
